Here are results for four molecules from paper PMC5688218.

The chains behind the UniProt entries cited, without tags or fusion partners. Where a name states a change or a piece, a line headed by the entry shows the natural chain unless it says otherwise.
UniProt Q96EQ9: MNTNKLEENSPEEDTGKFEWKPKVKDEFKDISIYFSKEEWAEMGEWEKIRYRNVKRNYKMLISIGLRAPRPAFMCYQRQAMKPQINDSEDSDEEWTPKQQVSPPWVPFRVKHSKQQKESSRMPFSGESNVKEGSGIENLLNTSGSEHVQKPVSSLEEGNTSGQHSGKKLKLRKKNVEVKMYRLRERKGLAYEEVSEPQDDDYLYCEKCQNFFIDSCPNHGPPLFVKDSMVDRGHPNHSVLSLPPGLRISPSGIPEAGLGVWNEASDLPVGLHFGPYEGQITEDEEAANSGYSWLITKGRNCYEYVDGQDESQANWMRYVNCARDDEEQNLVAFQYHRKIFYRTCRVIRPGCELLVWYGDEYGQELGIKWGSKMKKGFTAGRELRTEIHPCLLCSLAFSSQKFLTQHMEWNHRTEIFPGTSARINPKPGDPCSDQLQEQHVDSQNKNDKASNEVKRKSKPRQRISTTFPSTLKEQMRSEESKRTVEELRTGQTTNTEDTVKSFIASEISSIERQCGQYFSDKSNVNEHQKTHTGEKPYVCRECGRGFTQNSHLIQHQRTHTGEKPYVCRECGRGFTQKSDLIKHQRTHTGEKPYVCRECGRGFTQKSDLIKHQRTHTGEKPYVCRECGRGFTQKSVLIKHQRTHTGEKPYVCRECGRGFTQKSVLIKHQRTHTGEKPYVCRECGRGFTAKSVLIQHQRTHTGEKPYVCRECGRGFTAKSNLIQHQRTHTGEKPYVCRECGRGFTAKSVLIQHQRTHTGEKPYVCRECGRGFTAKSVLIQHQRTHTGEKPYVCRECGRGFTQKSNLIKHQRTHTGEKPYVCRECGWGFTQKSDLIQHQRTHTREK

B1: mouse CEP70, full length (Gal4 AD fusion) (protein, UniProt Q6IQY5 1-616)
chain: MTEGSQIFLLPISTSDSTKEPLSPVASKAQDPSLLSNRLMIEKQQEEAEWESINGLLMTHGFKPLCLVKGADLRDFIVFDKQSSQKMRQILKTLMEETTRQQSMIRELIETNQQLKSELQLEQNRAAHQEQRANDLQQIMDSVKSKIGELEDESLNRVCQQQNRIKDLQKEYKMLQMKCQQYKKNRMEQEGTIASLQKEIHRLAKEEEERILTQNRVFAHLCRRVPHSVLDKQLLCLIDYYECKLRKLHIQRQFEEDSQSEEKDFTNLGASPNYKGVLMSLQKQLKESKSRIDVLVGEKLSLQKDLENRPTEHELRLYKQQVKKLEKTLKKNIKLQDLIGQKKSDDTEKKDEPSKDSHQQALIEQSYFQVLCSINSIVHNPRAPVIIYKQSKGRAPNGNKDIGQDCGFEHLVPIIEMWVDELTSLKDLYKSLKILSAELVPWHSLKKLDEKEGVKVGDLLFMVDTMLEEVENQKETSSTPNSQTLQAIVSHFQKLFDVQSLNGVFPRMNEVYTRLGEMNNAVRNLQELLELDSSSSLCVVVSTVGKLCEIINKDVSEQVKQVLGPEDLQSIIKKLEEHEEFFPAFQAFANDLLEILEIDDLDAIVPAVKKLKILSY
B2: mouse FKBP6 85–327 (Gal4 AD fusion) (domain or fragment, UniProt Q91XW8 85-327)
chain: KLGEDITLWGMELGLLSMRKGELARFLFKPAYAYGTLGCPPLIPPNATVLFEIELIDFLDSAESDKFCALSAEQQEQFPLQKVLKVAATEREFGNYLFRQNRFCDAKVRYKRALLLLHRRLATCEEQHLVEPAVLLVLLNLSFVYLKLDRPAMALRYGEQALLIDKRNAKALFRCGQACLLLTEYERARDFLVRAQKEQPCNHDINNELKKLSSHYRDYVDREREMCHRMFAPCGSRSSVGGN
B3: mouse IFT88, full length (Gal4 AD fusion) (protein, UniProt Q61371 1-824)
chain: MENVHLAPETDEDDLYSGFNDYNPAYDTEELENDTGFQQAVRTSHGRRPPVTAKIPSTAVSRPIATGYGSKTSLTSSMGRPMTGTIQDGVARPMTAVRAAGFSKAALRGSAFDPLGQSRGPAPPLEAKNEDSPEEKIRQLEKKVNELVEESCIANSCGDLKLALEKAKDAGRKERVLVRQREQVTSPENINLDLTYSVLFNLASQYSANEMYAEALNTYQVIVKNKMFSNAGRLKVNMGNIYLKQRNYSKAIKFYRMALDQIPSVHKEMRIKIMQNIGITFIKTGQYSDAINSFEHIMSMAPSLKAGFNLILSCFAIGDREKMKKAFQKLIAVPLEIDEDDKYISPSDDPHTNLLIEAIKNDHLRQMERERKAMAEKYIMTAAKLIAPVIEASFAVGYNWCVEVVKASQYVELANDLEINKAITYLRQKDFNQAVDTLKMFEKKDSRVKSAAATNLSFLYYLENEFAQASSYADLAVNSDRYNPSALTNKGNTVFANGDYEKAAEFYKEALRNDSSCTEALYNIGLTYKKLNRLDEALDSFLKLHAILRNSAQVLCQIANIYELMEDPNQAIEWLMQLISVVPTDSQALSKLGELYDSEGDKSQAFQYYYESYRYFPSNIEVIEWLGAYYIDTQFCEKAIQYFERASLIQPTQVKWQLMVASCFRRSGNYQKALDTYKEIHRKFPENVECLRFLVRLCTDIGLKEVQEYATKLKRLEKMKEMREQRIKSGRDSSGGSRSKREGSAGSDSGQNNSASSKSERLSAKLRALPGTDEPYESSGNKEIDASYVDPLGPQIERPKTAAKKRIDEDDFADEELGDDLLPE
B4: N-terminal fragment of TRIM28 (amino acid residues 1–419), Gal4 AD fusion (domain or fragment, UniProt Q13263 1-419)
chain: MAASAAAASAAAASAASGSPGPGEGSAGGEKRSTAPSAAASASASAAASSPAGGGAEALELLEHCGVCRERLRPEREPRLLPCLHSACSACLGPAAPAAANSSGDGGAAGDGTVVDCPVCKQQCFSKDIVENYFMRDSGSKAATDAQDANQCCTSCEDNAPATSYCVECSEPLCETCVEAHQRVKYTKDHTVRSTGPAKSRDGERTVYCNVHKHEPLVLFCESCDTLTCRDCQLNAHKDHQYQFLEDAVRNQRKLLASLVKRLGDKHATLQKSTKEVRSSIRQVSDVQKRVQVDVKMAILQIMKELNKRGRVLVNDAQKVTEGQQERLERQHWTMTKIQKHQEHILRFASWALESDNNTALLLSKKLIYFQLHRALKMIVDPVEPHGEMKFQWDLNAWTKSAEAFGKIVAERPGTNSTG

These are yes or no findings as the source states them, for the method shown. A result given as binding can be weak or reduced; the word gives no strength. Where a sequence is shown, tags or fusion partners need not be part of it.

The target in this assay is KRAB domain of mouse PRDM9 (Gal4 BD-PRDM9 KRAB) (mouse) (UniProt Q96EQ9). In words: two-hybrid; Gal4 AD fusions (Y187) mated with Gal4 BD fusions (AH109); growth of diploids on −LWH and −LWHAd after 3 days at 30 °C, by streaking or spotting; 5 mM 3-AT added to −LWH for self-activating constructs.
Regarding B1, the binding result is listed as “binds”.

With B2, the binding entry is “binds”.

Take B3: the binding entry is listed as “binds”.

Take B4: the binding result was “no binding”.
